Results taken from US12269831B2, “Modulators of cystic fibrosis transmembrane conductance regulator” (Vertex Pharmaceuticals Incorporated, priority 2020, dated 2025).

Chains of the proteins cited; added tags and fusions are not shown. A line that says so, or that is headed by a name, gives the form on record, which may keep a tag or linker.
UniProt P13569, with tags, fused parts or gaps DEL508-508: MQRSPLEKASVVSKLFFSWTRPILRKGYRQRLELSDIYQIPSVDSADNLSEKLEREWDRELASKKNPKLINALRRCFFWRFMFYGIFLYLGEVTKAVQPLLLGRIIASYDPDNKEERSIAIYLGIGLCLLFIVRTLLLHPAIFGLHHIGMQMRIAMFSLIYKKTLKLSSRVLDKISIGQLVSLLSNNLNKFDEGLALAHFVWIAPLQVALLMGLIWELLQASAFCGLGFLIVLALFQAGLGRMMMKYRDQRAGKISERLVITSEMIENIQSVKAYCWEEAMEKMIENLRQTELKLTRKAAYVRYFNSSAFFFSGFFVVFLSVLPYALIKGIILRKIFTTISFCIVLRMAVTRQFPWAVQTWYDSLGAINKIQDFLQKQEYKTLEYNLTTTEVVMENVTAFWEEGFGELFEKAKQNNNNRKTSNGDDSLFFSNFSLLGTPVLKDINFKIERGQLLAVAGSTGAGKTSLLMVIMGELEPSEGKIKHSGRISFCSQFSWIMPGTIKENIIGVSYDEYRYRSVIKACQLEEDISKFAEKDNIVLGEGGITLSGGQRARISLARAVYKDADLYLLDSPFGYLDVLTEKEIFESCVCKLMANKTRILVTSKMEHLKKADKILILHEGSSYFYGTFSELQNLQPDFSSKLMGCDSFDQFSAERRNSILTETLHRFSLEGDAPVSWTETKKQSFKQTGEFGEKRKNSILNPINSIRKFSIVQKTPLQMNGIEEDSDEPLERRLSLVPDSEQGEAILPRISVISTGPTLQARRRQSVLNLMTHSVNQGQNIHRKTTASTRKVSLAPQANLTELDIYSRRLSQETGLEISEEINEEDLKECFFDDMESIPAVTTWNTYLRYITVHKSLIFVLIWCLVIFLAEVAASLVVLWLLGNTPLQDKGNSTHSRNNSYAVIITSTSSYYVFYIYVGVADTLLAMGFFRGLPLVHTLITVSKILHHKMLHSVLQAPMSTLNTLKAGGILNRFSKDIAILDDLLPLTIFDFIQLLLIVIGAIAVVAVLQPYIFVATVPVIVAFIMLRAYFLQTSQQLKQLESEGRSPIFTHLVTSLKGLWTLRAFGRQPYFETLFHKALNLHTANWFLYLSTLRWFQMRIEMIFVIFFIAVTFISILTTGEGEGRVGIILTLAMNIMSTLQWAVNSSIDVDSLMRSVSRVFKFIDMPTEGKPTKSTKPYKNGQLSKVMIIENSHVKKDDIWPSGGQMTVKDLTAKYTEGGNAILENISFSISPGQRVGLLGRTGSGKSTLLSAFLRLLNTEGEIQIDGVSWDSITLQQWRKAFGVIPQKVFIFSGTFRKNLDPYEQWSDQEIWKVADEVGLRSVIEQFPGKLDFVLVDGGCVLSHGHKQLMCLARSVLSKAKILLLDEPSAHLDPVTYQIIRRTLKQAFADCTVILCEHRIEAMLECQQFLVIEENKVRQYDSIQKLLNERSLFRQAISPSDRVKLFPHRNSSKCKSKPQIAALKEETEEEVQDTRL

Target: CFTR (F508del/MF-HBE cells) (Homo sapiens, UniProt P13569, DEL508-508)
Test: Ussing chamber assay of CFTR-mediated short-circuit currents (potentiator identification)
Details: CFTR-mediated Isc, 18-24 h incubation at 37° C. with 10 μM (14S)-8-[3-(2-{dispiro[2.0.2.1]heptan-7-yl}ethoxy)-1H-pyrazol-1-yl]-... corrector, 20% human serum
Description: Ussing Chamber Assay of CFTR-Mediated Short-Circuit Currents
Ussing chamber experiments were performed using human bronchial epithelial (HBE) cells derived from CF subjects heterozygous for F508del and a minimal function CFTR mutation (F508del/MF-HBE) and cultured as previously described (Neuberger T, Burton B, Clark H, Van Goor F Methods Mol Biol 2011:741:39-54). After four days the apical media was removed, and the cells were grown at an air liquid interface for >14 days prior to use.
To isolate the CFTR-mediated short-circuit (Isc) current, F508del/MF-HBE grown on Costar® Snapwell™ cell culture inserts were mounted in an Ussing chamber and the transepithelial ISC was measured under voltage-clamp recording conditions (Vhold=0 mV) at 37° C. The basolateral solution contained (in mM) 145 NaCl, 0.83 K2HPO4, 3.3 KH2PO4, 1.2 MgCl2, 1.2 CaCl2, 10 Glucose, 10 HEPES (pH adjusted to 7.4 with NaOH) and the apical solution contained (in mM) 145 NaGluconate, 1.2 MgCl2, 1.2 CaCl2, 10 glucose, 10 HEPES (pH adjusted to 7.4 with NaOH) and 30 μM amiloride to block the epithelial sodium channel. […] The CFTR-mediated Isc (μA/cm^2) for each condition was determined from the peak forskolin response to the steady-state current following inhibition. […]
The activity of the CFTR potentiator compounds on the CFTR-mediated Isc was determined in Ussing chamber studies as described above. […]

EC50: < 0.5 µM
SMILES: C[C@@H]1CCCC(O)C[C@](O)(C(F)(F)F)C2=NN=C(O2)c2nc(c(C(F)(F)F)cc2N)O1 (single isomer, unassigned)

Structures were worked out from names or drawings and are uncertain.
